Measured values: patent EP4814015A1
Results are given in words; binding and its absence hold for the method and conditions named. Binding seen in cells or lysates may run through a third protein. Some entries that bind do so weakly or less than the wild type. Where a sequence is shown, tags or fusion partners need not be part of it.

Columns and labels:
[1] = target: T1, recombinant monomeric TCTP (Pan troglodytes (Chimpanzee)) (UniProt A5A6K2); test: pull-down on Protein A beads, Western blot (non-reducing) with anti-TCTP antibody
T1 sequence: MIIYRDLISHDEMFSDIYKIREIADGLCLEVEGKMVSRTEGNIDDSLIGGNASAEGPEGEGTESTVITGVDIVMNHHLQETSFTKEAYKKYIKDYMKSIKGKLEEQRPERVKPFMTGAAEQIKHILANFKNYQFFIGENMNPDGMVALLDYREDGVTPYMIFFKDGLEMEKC

[2] = target: T2, recombinant dimeric TCTP (translationally controlled tumor protein with the N-terminal 10 amino acids deleted) (Pan troglodytes (Chimpanzee)) (UniProt A5A6K2); test: as above
T2 sequence: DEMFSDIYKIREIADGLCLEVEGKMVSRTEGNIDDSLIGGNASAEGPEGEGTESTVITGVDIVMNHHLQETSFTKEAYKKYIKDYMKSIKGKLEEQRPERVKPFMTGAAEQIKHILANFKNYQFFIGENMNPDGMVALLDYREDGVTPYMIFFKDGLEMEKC

[3] = target: T2, recombinant dimeric TCTP (translationally controlled tumor protein with the N-terminal 10 amino acids deleted) (Pan troglodytes (Chimpanzee)); test: pull-down on Protein A beads (Example 2), restated

Measured: binding

B1: recombinant human CD300c-Fc chimeric protein (BioLegend) (Fc fusion, not shown: a dimerising Fc or GST; small tags and cut ends)
chain: MTVAGPVGGSLSVQCRYEKEHRTLNKFWCRPPQILRCDKIVETKGSAGKRNGRVSIRDSPANLSFTVTLENLTEEDAGTYWCGVDTPWLRDFHDPIVEVEVSVFPAGTTTASSPQSSMGTSGPPTKLPVHTWPSVTRKDSPEPSPHPGSLFSNVR
binds: [1] | [2] | [3]
